Results as given in paper doi:10.1101/2021.05.06.442885.

Tests used:
[1] = target: T1, hXkr8-T305C-mGFP (human) (UniProt Q9H6D3); assay: cross-linking
T1 sequence: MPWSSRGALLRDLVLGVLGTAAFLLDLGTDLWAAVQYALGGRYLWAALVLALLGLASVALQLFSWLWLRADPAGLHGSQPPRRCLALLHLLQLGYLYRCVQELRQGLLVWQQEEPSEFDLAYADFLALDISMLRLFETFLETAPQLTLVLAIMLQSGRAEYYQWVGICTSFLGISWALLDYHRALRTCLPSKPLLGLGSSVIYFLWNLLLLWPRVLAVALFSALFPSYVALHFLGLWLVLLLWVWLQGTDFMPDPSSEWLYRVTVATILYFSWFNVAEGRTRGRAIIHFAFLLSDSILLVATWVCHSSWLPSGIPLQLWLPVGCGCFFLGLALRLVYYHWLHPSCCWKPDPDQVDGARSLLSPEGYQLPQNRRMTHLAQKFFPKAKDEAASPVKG

[2] = target: T2, hXkr8-T302C-mGFP (human) (UniProt Q9H6D3); assay: cross-linking
T2 sequence: T1 sequence with T302C, C305T

Row | binding [1] | binding [2] | Substance
1 | binds |  | hBSG-A207C-HA (human)
2 |  | binds | hBSG-P211C-HA (human)

Changes are numbered by the printed parent chain. No constants are given. Whether binding was seen depends on the method and setting. In cells and extracts the contact can be indirect. A result given as binding can be weak or reduced; the word gives no strength. Tags and fused reporters may be left off the sequences shown.
